Measurements as given in the supplement of paper PMC12819154, “High-throughput peptide-centric local stability assay extends protein–ligand identification to membrane proteins, tissues and bacteria” (Nature Structural & Molecular Biology, 2025).
The other results are listed elsewhere or left out. Small differences around the control level are noise.

Protein sequences, listed by entry. Tags and fused reporters are not part of them. Lines headed by an entry give the natural chain unless they say otherwise; changes in a name come on top.
UniProt P51649: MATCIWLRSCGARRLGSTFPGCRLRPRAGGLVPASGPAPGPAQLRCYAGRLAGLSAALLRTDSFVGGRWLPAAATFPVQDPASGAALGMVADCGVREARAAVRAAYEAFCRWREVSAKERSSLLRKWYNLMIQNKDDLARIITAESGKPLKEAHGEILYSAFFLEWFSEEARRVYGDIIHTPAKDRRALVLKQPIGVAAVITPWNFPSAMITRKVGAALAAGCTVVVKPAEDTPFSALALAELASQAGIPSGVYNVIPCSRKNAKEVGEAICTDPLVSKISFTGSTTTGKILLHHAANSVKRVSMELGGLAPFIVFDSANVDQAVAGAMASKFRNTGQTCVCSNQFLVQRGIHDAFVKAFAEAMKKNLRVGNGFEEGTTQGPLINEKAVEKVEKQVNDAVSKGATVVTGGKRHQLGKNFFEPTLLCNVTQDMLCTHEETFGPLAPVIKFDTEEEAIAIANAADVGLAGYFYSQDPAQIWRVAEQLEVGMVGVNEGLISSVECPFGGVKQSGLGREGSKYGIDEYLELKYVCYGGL
UniProt P49795: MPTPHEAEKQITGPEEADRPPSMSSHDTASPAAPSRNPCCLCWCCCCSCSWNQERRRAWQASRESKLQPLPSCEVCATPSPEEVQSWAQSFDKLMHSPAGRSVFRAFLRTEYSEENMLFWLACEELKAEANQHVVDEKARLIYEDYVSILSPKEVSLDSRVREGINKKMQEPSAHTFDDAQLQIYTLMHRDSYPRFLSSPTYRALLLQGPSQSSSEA
UniProt P46940, whole entry: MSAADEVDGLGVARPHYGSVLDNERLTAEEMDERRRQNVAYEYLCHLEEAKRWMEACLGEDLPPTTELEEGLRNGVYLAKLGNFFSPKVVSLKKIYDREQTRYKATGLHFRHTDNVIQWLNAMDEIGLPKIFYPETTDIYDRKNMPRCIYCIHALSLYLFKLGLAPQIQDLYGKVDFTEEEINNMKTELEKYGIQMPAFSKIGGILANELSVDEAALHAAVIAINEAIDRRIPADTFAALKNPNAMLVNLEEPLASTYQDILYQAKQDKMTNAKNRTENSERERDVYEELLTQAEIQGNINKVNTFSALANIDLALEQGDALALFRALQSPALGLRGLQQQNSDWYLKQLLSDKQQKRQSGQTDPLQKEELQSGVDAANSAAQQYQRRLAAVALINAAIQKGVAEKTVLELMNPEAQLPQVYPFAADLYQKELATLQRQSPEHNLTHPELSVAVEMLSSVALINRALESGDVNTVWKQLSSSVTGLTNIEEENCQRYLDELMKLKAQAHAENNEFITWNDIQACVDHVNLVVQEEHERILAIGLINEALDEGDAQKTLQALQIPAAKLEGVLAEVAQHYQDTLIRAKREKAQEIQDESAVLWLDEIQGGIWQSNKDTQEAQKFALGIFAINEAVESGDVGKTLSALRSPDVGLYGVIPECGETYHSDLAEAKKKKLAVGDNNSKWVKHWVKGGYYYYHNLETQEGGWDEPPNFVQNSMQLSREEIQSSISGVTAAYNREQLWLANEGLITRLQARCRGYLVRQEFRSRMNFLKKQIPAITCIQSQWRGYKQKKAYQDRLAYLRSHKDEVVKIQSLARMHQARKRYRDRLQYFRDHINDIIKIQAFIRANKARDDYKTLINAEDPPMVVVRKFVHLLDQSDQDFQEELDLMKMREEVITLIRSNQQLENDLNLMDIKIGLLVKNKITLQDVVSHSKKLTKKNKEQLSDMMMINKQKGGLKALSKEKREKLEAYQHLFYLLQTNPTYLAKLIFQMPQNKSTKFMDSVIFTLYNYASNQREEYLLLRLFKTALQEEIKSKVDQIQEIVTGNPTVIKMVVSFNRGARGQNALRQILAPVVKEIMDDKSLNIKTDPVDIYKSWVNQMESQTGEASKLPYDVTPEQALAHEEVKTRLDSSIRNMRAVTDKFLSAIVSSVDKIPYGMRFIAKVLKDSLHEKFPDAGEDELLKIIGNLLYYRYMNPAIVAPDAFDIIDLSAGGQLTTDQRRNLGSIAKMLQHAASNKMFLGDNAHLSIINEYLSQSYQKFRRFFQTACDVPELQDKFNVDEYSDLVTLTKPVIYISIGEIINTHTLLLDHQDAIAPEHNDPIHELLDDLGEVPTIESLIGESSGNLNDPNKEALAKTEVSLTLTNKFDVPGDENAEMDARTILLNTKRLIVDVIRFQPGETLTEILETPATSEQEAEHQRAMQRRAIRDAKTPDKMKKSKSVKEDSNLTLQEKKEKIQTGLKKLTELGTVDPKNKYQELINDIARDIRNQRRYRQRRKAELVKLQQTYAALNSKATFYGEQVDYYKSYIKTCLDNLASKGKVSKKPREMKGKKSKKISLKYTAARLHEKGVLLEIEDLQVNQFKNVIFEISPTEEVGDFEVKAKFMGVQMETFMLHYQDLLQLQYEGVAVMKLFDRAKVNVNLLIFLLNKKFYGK
UniProt P49189: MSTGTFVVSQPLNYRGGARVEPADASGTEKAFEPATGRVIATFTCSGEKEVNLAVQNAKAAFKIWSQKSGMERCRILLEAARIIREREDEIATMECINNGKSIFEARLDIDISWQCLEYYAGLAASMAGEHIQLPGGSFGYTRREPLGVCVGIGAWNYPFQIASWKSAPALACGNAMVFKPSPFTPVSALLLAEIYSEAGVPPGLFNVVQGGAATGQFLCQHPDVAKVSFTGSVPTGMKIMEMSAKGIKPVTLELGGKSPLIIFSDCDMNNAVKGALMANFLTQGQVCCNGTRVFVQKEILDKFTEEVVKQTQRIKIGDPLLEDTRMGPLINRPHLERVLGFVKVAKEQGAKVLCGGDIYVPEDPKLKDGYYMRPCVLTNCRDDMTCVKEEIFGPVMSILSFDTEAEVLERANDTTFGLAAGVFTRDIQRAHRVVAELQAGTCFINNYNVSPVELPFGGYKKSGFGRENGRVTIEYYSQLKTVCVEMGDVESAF
UniProt P49796: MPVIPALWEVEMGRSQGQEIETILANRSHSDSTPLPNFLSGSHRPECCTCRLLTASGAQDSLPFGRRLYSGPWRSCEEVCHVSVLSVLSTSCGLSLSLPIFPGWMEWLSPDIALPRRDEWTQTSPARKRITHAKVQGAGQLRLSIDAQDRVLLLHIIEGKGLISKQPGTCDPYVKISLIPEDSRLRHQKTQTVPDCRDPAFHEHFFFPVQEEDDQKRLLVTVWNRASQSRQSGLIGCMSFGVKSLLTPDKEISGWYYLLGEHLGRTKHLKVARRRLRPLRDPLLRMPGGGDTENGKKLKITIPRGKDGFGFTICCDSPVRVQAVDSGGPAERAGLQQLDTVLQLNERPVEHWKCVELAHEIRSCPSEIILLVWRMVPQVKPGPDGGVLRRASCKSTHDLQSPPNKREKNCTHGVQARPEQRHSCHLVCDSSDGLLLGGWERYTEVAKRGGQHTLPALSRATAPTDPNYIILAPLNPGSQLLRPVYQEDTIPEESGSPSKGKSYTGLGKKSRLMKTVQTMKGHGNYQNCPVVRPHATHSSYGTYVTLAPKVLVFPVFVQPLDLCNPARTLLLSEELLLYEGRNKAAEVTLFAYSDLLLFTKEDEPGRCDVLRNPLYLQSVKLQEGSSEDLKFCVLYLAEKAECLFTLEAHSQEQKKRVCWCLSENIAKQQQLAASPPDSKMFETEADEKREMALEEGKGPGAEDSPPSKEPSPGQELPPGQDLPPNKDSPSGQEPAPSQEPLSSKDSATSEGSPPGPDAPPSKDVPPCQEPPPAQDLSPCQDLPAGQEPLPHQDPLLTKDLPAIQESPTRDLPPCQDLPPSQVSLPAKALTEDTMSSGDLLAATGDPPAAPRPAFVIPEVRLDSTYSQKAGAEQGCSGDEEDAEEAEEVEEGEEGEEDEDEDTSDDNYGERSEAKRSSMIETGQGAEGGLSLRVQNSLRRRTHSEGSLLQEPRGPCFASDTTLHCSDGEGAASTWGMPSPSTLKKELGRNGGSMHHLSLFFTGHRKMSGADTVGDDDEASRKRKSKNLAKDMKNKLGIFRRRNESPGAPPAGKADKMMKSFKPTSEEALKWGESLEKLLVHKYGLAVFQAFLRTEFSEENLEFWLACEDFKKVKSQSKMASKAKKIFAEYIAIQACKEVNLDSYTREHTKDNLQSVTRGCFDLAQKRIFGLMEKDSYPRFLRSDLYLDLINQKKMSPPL
UniProt P51687: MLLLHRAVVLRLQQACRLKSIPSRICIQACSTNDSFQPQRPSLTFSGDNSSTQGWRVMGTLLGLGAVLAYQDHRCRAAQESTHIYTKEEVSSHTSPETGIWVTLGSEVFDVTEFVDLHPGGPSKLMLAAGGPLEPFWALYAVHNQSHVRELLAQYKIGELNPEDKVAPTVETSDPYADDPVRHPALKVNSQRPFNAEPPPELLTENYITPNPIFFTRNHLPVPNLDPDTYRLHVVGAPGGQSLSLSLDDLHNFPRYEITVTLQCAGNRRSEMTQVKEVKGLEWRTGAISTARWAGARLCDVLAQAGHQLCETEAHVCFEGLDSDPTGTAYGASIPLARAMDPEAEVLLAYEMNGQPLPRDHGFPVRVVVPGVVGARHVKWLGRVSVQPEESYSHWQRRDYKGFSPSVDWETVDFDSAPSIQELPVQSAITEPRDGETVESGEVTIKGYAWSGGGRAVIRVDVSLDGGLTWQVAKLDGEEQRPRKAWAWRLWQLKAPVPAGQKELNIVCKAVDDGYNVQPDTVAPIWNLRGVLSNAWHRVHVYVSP
UniProt P51572: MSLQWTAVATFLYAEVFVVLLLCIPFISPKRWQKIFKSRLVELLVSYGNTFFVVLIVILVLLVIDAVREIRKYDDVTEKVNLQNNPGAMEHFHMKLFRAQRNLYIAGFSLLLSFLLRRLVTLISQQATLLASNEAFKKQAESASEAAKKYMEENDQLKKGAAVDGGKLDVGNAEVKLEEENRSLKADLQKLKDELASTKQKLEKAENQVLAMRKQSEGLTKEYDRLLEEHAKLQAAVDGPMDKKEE
UniProt P52895: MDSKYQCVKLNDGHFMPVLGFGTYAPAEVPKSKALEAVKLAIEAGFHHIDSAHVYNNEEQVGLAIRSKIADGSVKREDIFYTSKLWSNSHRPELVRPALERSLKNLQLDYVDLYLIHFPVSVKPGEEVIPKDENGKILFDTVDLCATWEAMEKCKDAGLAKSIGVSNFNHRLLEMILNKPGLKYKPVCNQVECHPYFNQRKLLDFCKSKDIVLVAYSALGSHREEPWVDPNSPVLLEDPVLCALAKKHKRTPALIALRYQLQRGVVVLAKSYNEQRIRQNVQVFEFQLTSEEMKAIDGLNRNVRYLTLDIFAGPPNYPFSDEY
UniProt P48380: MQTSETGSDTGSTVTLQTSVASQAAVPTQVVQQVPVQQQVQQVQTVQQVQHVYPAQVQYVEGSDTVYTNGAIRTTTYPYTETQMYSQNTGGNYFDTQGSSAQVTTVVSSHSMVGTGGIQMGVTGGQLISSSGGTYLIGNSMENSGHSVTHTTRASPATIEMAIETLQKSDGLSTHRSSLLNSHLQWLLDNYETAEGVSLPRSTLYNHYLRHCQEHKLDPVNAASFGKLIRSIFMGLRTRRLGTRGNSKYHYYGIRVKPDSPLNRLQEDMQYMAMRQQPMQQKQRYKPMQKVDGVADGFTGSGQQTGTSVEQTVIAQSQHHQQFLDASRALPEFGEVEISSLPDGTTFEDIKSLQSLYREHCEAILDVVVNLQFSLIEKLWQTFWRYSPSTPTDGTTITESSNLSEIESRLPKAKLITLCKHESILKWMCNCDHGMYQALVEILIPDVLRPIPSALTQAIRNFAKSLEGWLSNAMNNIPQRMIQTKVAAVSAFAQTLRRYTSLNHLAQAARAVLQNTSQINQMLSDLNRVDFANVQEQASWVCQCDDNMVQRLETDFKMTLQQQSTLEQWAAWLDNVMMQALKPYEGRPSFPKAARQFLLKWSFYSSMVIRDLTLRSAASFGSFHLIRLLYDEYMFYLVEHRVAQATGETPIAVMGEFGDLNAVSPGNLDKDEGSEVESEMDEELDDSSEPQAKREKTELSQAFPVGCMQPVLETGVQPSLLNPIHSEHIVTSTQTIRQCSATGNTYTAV
UniProt P47895: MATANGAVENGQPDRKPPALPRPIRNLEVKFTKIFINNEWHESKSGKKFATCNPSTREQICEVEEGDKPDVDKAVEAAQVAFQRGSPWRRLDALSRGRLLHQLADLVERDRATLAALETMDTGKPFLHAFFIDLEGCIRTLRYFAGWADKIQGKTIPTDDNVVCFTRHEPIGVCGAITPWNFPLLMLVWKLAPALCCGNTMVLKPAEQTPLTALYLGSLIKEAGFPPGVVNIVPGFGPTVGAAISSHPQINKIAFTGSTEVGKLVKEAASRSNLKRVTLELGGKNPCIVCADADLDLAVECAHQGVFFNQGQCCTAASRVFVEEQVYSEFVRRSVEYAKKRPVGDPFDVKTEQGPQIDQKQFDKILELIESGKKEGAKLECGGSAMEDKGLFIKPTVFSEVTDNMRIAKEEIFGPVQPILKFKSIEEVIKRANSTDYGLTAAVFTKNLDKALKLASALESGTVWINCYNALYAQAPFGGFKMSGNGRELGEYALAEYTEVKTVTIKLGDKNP

Compound: CN[C@@H]1C[C@H]2O[C@@](C)([C@@H]1OC)n1c3ccccc3c3c4c(c5c6ccccc6n2c5c31)C(=O)NC4 [staurosporine]
Test: log2 fold change of tryptic peptide abundance, ligand vs vehicle (limited proteolysis) (log2 ratio); higher = more trypsin-susceptible (destabilized)
Settings: ligand concentration: 20 uM; sample: K562 cleared lysate; digestion: 4 min, 22 C (HT-PELSA RT4min, Orbitrap Astral)

Q: How did the log2 fold change turn out when “ALDH5A1 (peptide sequence: ISFTGSTTTGK, peptide start residue: 280) (UniProt P51649)” was run?
A: 0.27

Q: For “PPOX (peptide sequence: TPQPDSALIR, peptide start residue: 208) (UniProt P50336)”, which log2 fold change is on record?
A: 0.153

Q: How did the log2 fold change turn out when “RGS19 (peptide sequence: AEANQHVVDEK, peptide start residue: 128) (UniProt P49795)” was run?
A: -0.712

Q: Which log2 fold change does the source give for “IQGAP1 (peptide sequence: IFYPETTDIYDRK, peptide start residue: 131) (UniProt P46940)” here?
A: 0.233

Q: How did the log2 fold change turn out when “ALDH9A1 (peptide sequence: VSFTGSVPTGMK, peptide start residue: 228) (UniProt P49189)” was run?
A: 0.289

Q: For “HCCS (peptide sequence: AYEYVECPIR, peptide start residue: 60) (UniProt P53701)”, which log2 fold change is on record?
A: 0.337

Q: With “PSEN1 (peptide sequence: YNAESTER, peptide start residue: 315) (UniProt P49768)” as the target, how does the log2 fold change read?
A: -0.185

Q: How did the log2 fold change turn out when “AIF1 (peptide sequence: YSSDEDLPSKLEGFKEK, peptide start residue: 37) (UniProt P55008)” was run?
A: 0.408

Q: With “AGFG1 (peptide sequence: EFLQEKYEK, peptide start residue: 133) (UniProt P52594)” as the target, how does the log2 fold change read?
A: -0.316

Q: With “RGS3 (peptide sequence: EHTKDNLQSVTR, peptide start residue: 1146) (UniProt P49796)” as the target, how does the log2 fold change read?
A: 0.54

Q: How did the log2 fold change turn out when “SERPINB9 (peptide sequence: HLGIVDAFQQGK, peptide start residue: 286) (UniProt P50453)” was run?
A: 1.29

Q: How did the log2 fold change turn out when “SUOX (peptide sequence: VVVPGVVGAR, peptide start residue: 367) (UniProt P51687)” was run?
A: -0.14

Q: “CRK (peptide sequence: ALFDFNGNDEEDLPFKK, peptide start residue: 139) (UniProt P46108)” was tested. Which log2 fold change did it give?
A: -0.172

Q: With “UniProt P49959 (peptide sequence: IMSQSQVSK, peptide start residue: 674)” as the target, how does the log2 fold change read?
A: -0.101

Q: How did the log2 fold change turn out when “AARS (peptide sequence: LVSVLQNK, peptide start residue: 247) (UniProt P49588)” was run?
A: 0.243

Q: “CLTCL1 (peptide sequence: AHMGMFTELAILYSK, peptide start residue: 1312) (UniProt P53675)” was tested. Which log2 fold change did it give?
A: 0.208

Q: With “BCAP31 (peptide sequence: LDVGNAEVK, peptide start residue: 168) (UniProt P51572)” as the target, how does the log2 fold change read?
A: -0.135

Q: “MNAT1 (peptide sequence: GAGNCPECGTPLRK, peptide start residue: 42) (UniProt P51948)” was tested. Which log2 fold change did it give?
A: 0.274

Q: With “AKR1C2 (peptide sequence: LLEMILNKPGLK, peptide start residue: 172) (UniProt P52895)” as the target, how does the log2 fold change read?
A: 0.0442

Q: With “DAP3 (peptide sequence: VRNATDAVGIVLK, peptide start residue: 233) (UniProt P51398)” as the target, how does the log2 fold change read?
A: -0.367

Q: “GALK1 (peptide sequence: HVVGEIRR, peptide start residue: 280) (UniProt P51570)” was tested. Which log2 fold change did it give?
A: 0.526

Q: “UniProt P53680 (peptide sequence: QLLMLQSLE, peptide start residue: 134)” was tested. Which log2 fold change did it give?
A: 0.17

Q: “DGKQ (peptide sequence: EGNLPSGAR, peptide start residue: 188) (UniProt P52824)” was tested. Which log2 fold change did it give?
A: -0.254

Q: How did the log2 fold change turn out when “PLCD1 (peptide sequence: LQHWIHSCLR, peptide start residue: 141) (UniProt P51178)” was run?
A: 0.201

Q: With “RFX3 (peptide sequence: ASPATIEMAIETLQK, peptide start residue: 154) (UniProt P48380)” as the target, how does the log2 fold change read?
A: -0.509

Q: “UniProt P50226 (peptide sequence: SLPEETVDLMVEHTSFK, peptide start residue: 214)” was tested. Which log2 fold change did it give?
A: -0.183

Q: For “ARHGDIB (peptide sequence: SLKELQEMDKDDESLIK, peptide start residue: 31) (UniProt P52566)”, which log2 fold change is on record?
A: -0.316

Q: For “FNTA (peptide sequence: DVYDYFR, peptide start residue: 98) (UniProt P49354)”, which log2 fold change is on record?
A: 0.2

Q: With “PPP5C (peptide sequence: AKDYENAIK, peptide start residue: 41) (UniProt P53041)” as the target, how does the log2 fold change read?
A: 0.135

Q: Which log2 fold change does the source give for “RABGGTB (peptide sequence: GTPQKDVIIK, peptide start residue: 2) (UniProt P53611)” here?
A: 0.253

Q: With “CDK8 (peptide sequence: ELKHPNVISLQK, peptide start residue: 72) (UniProt P49336)” as the target, how does the log2 fold change read?
A: -1.12

Q: Which log2 fold change does the source give for “RANBP2 (peptide sequence: LYLDGSEK, peptide start residue: 2688) (UniProt P49792)” here?
A: 0.399

Q: How did the log2 fold change turn out when “SEPHS1 (peptide sequence: YGEGHQAWIIGIVEK, peptide start residue: 345) (UniProt P49903)” was run?
A: 0.224

Q: With “ARFIP1 (peptide sequence: IEYDAYR, peptide start residue: 265) (UniProt P53367)” as the target, how does the log2 fold change read?
A: 0.21

Q: For “ALDH1A3 (peptide sequence: IAFTGSTEVGK, peptide start residue: 259) (UniProt P47895)”, which log2 fold change is on record?
A: -0.0882
